In PubChem BioAssay (EPA / NIEHS):
This list was built around the results that the source calls inconclusive (neither active nor inactive); the mix of calls is not that of the screen. A potency beside an inconclusive call is a rough fit, not a confirmed value. Calls of active or inactive are those of the source. The calls were made as follows: active = hit-call score of the fitted dose curve at least 0.9, where 1 is the maximum; inconclusive = response in the unintended direction; inactive = score below 0.9.

Sequences of proteins named here, by UniProt entry; tags and fusion partners are left off. A change or cut given only in a name is not applied to a line headed by its entry.
UniProt P11509: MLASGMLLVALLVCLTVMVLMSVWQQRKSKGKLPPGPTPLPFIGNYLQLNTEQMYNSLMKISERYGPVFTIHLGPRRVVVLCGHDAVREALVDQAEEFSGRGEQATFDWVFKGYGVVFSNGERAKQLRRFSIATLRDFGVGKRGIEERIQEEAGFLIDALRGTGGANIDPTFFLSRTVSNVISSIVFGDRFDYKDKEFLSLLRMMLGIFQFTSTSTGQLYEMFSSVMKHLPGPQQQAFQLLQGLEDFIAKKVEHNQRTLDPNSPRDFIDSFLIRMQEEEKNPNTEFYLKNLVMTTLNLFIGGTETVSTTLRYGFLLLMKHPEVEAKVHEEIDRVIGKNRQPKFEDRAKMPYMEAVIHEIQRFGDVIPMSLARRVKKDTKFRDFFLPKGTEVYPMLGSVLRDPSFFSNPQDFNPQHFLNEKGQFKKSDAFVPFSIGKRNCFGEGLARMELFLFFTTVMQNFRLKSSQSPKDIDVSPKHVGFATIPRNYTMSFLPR
UniProt P04798: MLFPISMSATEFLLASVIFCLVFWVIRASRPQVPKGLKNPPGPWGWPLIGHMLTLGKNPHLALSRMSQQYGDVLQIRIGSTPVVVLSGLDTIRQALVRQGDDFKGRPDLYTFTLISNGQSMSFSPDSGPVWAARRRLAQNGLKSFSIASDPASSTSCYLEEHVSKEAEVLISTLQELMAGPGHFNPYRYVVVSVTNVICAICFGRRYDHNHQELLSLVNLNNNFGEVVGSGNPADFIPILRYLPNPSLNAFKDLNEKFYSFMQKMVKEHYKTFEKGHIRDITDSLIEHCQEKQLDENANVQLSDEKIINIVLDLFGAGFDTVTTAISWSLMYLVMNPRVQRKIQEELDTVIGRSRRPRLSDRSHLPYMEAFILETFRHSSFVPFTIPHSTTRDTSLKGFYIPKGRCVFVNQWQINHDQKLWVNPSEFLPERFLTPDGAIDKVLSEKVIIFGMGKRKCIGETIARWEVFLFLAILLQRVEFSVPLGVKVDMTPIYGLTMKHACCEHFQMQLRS
UniProt P08684, whole entry, looked up: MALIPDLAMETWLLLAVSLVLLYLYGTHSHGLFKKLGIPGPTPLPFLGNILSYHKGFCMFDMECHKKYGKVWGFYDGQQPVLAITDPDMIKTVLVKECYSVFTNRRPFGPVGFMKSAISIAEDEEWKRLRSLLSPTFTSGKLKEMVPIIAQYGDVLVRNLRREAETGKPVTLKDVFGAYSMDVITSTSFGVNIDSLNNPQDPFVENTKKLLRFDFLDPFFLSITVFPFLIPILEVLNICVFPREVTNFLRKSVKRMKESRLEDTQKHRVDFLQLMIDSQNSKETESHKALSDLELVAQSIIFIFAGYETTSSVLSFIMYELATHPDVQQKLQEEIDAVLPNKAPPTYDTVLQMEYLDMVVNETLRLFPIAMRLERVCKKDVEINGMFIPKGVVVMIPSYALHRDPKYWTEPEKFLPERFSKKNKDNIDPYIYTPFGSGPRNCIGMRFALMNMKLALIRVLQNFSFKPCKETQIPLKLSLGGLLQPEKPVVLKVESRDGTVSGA
UniProt P24666: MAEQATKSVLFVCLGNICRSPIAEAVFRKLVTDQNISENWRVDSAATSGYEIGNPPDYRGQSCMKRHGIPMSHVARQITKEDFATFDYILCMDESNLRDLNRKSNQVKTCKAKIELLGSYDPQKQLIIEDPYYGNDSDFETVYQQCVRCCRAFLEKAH
UniProt P48730: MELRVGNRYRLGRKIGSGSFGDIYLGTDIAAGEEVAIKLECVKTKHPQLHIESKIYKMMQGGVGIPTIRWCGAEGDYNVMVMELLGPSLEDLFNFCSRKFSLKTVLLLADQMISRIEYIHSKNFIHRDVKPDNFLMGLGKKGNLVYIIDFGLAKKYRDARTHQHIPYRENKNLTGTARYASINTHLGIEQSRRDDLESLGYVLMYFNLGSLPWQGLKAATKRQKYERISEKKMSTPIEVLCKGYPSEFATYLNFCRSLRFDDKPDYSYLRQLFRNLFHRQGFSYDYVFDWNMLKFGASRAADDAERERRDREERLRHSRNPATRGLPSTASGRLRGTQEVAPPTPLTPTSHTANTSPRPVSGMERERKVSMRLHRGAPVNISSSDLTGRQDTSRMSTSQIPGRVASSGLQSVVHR

Each compound was assayed against human CYP2A6, CYP2A6 (gene 1548) (UniProt P11509) (assay: NVS_ADME_hCYP2A6: NovaScreen (NVS) CYP450-related Enzyme Activity (ADME) Assay for human CYP2A6 (AID 2283099)).
Summary of the method: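 Recombinant human CYP2A6 expressed in insect cells, cell-free; fluorogenic substrate turnover read by fluorescence intensity 0.5 h after dosing. Primary screen 10 uM in duplicate, then concentration-response up to 20 uM; acetonitrile as negative control.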
For `NCc1cccc(C2CCN(C(=O)c3ccc(C#Cc4ccccc4F)o3)CC2)c1`, the AC50 was active: 17.9 µM.
With `CC(C)=CCCC(C)CCO` (centres undefined) the AC50 was inconclusive: 10 µM.
For `CCCOC(=O)c1ccc(O)cc1`, the outcome was “inactive”.
For `N#CSCSc1nc2ccccc2s1`, the AC50 was active: 3.06 µM.
With `Clc1ccccc1C(c1ccccc1)(c1ccccc1)n1ccnc1` the outcome was “inactive”.
In the case of `c1ccc(C(O[C@@H]2CCCN(CCc3ccc4c(c3)OCO4)C2)c2ccccc2)cc1`, the outcome is reported as “inactive”.
In the case of `CCCOC(=O)c1cc(O)c(O)c(O)c1`, the AC50 is reported as inconclusive: 4.92 µM.
For `CC1(C)C(=O)NC(=O)N1CO`, the outcome was “inactive”.
`Nc1ccc(Nc2ccccc2)cc1` was tested, and the AC50 was inconclusive: 10 µM.
With `c1ccc2c(c1)-c1cccc3c1c-2cc1ccccc13` the AC50 was inconclusive: 10 µM.
`CCCCCCCCOC(=O)c1cc(O)c(O)c(O)c1` was tested, and the AC50 was inconclusive: 0.647 µM.

These compounds were tested against human CYP1A1, CYP1A1 (gene 1543) (UniProt P04798) (assay: NVS_ADME_hCYP1A1: NovaScreen (NVS) CYP450-related Enzyme Activity (ADME) Assay for human CYP1A1 (AID 2283100)).
Summary of the method: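 Recombinant CYP1A1 with a fluorogenic substrate, cell-free, read 1 h after dosing; acetonitrile as negative control. Single-concentration screen at 10 uM in duplicate, then concentration-response up to 20 uM for chemicals meeting ~30% inhibition threshold.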
In the case of `O=c1[nH]cc(F)c(=O)[nH]1`, the AC50 is reported as inconclusive: 0.0614 µM.
For `O=c1[nH]sc2ccccc12`, the AC50 was active: 5.11 µM.
In the case of `CCOC(=O)COc1ccc2c(c1)CC(NCC(O)c1cccc(Cl)c1)CC2` (centres undefined), the outcome is reported as “inactive”.
`COc1ccc2cc(S(=O)(=O)N[C@H](CC(=O)N[C@H](Cc3ccc(CN4[C@H](C)CCC[C@@H]4C)cc3)C(=O)N(C)C(C)C)c3ccc4c(c3)OCO4)ccc2c1` was tested, and the outcome was “inactive”.
In the case of `Cc1ccc(S(=O)(=O)O)cc1C`, the AC50 is reported as inconclusive: 3.01 µM.
`CCN(Cc1cccnc1)C(=O)c1cccc(Cl)c1[C@]1(C)C(=O)N(Cc2ccc(OC)cc2OC)c2ccc(Cl)cc21` was tested, and the outcome was “inactive”.
With `O=C(O)c1cccc(Oc2ccccc2)c1` the AC50 was inconclusive: 0.41 µM.
In the case of `COCCOC[C@H](CC1(C(=O)NC2CCC(C(=O)O)CC2)CCCC1)C(=O)Oc1ccc2c(c1)CCC2` (some centres undefined), the AC50 is reported as inconclusive: 10 µM.
In the case of `CS(=O)(=O)OCCCCOS(C)(=O)=O`, the AC50 is reported as inconclusive: 1.64 µM.
In the case of `C=CCOC(=O)c1ccccc1C(=O)OCC=C`, the AC50 is reported as inconclusive: 10 µM.
With `Nc1ccc(Nc2ccccc2)cc1` the AC50 was inconclusive: 2.45 µM.
`O=P(OC(CCl)CCl)(OC(CCl)CCl)OC(CCl)CCl` was tested, and the AC50 was inconclusive: 2.48 µM.
For `CCCCCCCCOC(=O)c1cc(O)c(O)c(O)c1`, the AC50 was inconclusive: 0.559 µM.

What follows are compounds tested against Cytochrome P450 3A4 (Homo sapiens) (UniProt P08684) (assay: NVS_ADME_hCYP3A4: NovaScreen (NVS) CYP450-related Enzyme Activity (ADME) Assay for human CYP3A4 (AID 2283110)).
Summary of the method: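 Compounds were first screened in duplicate at 10 uM against recombinant CYP3A4 produced in insect cells, then actives were run in concentration series. Enzyme activity was measured by fluorescence after 0.33 hour, with acetonitrile as baseline.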
For `CC(C)=CCCC(C)CCO` (centres undefined), the AC50 was inconclusive: 10 µM.
With `CCOC(=O)COc1ccc2c(c1)CC(NCC(O)c1cccc(Cl)c1)CC2` (centres undefined) the outcome was “inactive”.
With `COc1ccc2cc(S(=O)(=O)N[C@H](CC(=O)N[C@H](Cc3ccc(CN4[C@H](C)CCC[C@@H]4C)cc3)C(=O)N(C)C(C)C)c3ccc4c(c3)OCO4)ccc2c1` the AC50 was active: 0.861 µM.
With `Cc1ccc(S(=O)(=O)O)cc1C` the AC50 was inconclusive: 10 µM.
For `CCN(Cc1cccnc1)C(=O)c1cccc(Cl)c1[C@]1(C)C(=O)N(Cc2ccc(OC)cc2OC)c2ccc(Cl)cc21`, the AC50 was active: 3.58 µM.
`CS(=O)(=O)OCCCCOS(C)(=O)=O` was tested, and the AC50 was inconclusive: 10 µM.
In the case of `C=CCOC(=O)c1ccccc1C(=O)OCC=C`, the AC50 is reported as active: 6.19 µM.
With `O=C(c1ccc(OCCN2CCCCC2)cc1)c1c(-c2ccc(O)cc2)sc2cc(O)ccc12` the outcome was “inactive”.

What follows are compounds tested against human Acid Phosphatase 1 (ACP1), ACP1 (gene 52) (UniProt P24666) (assay: NVS_ENZ_hACP1: NovaScreen (NVS) Enzymatic Assay for human Acid Phosphatase 1 (ACP1) (AID 2283136)).
Summary of the method: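 Recombinant enzyme expressed in Sf9 cells, tested cell-free; activity read by fluorescence with electrophoretic mobility shift separation of substrate and product, 1.5 h after dosing. Primary screen in duplicate at 25 uM, actives then run in concentration series; loss of signal versus DMSO.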
`O=C(O)Cc1ccccc1Nc1c(Cl)cccc1Cl` was tested, and the outcome was “inactive”.
With `O=C(O)c1cccc(Oc2ccccc2)c1` the AC50 was inconclusive: 0.00647 µM.
For `O=P(OC(CCl)CCl)(OC(CCl)CCl)OC(CCl)CCl`, the outcome was “inactive”.

Each compound was assayed against human Casein Kinase 1-delta (CK1D), CSNK1D (gene 1453) (UniProt P48730) (assay: NVS_ENZ_hCK1D: NovaScreen (NVS) Enzymatic Assay for human Casein Kinase 1-delta (CK1D) (AID 2283148)).
Summary of the method: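 Recombinant human CK1-delta, cell-free; fluorescent substrate with electrophoretic mobility-shift separation of product, read 1 h after dosing. Single 25 uM duplicate screen, then concentration-response up to 50 uM; loss of signal vs DMSO.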
With `CC(C)(c1ccc(O)cc1)c1ccc(O)cc1` the AC50 was inconclusive: 25 µM.
In the case of `Cc1ccc(S(=O)(=O)O)cc1C`, the AC50 is reported as inconclusive: 25 µM.
With `O=C(c1ccc(OCCN2CCCCC2)cc1)c1c(-c2ccc(O)cc2)sc2cc(O)ccc12` the outcome was “inactive”.
For `CC1(C)C(=O)NC(=O)N1CO`, the AC50 was inconclusive: 25 µM.
